Assay [1] addresses hemoglobin δ (human (endogenous in Colo205)) (UniProt P02042). Briefly: co-IP; Hb antibody (Thermo Fisher Scientific) on protein G Sepharose, 45 min at RT; lysates of Colo205 cells grown under hypoxia; blot with αD antibody.
Assay [2] shares this target. Briefly: co-IP; Hb antibody (Thermo Fisher Scientific) on protein G Sepharose, 45 min at RT; lysates of Colo205 cells grown under normoxia; blot with αD antibody.
Assay [3] has as its target integrin β1 chain (human (endogenous in Colo205)) (UniProt P05556). Briefly: co-IP; integrin β1 antibodies (Santa Cruz and BD Biosciences) on protein G Sepharose, overnight at 4°C; RIPA lysates of Colo205 cells grown under hypoxia; blot with integrin αD antibody.

Chains of the proteins cited; added tags and fusions are not shown. Lines headed by an entry give the natural chain unless they say otherwise; changes in a name come on top. Residues count along the entry.
UniProt P02042: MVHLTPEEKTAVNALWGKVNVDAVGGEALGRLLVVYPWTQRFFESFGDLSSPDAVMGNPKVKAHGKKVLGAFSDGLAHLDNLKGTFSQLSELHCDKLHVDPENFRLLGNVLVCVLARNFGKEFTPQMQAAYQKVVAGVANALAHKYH
UniProt P05556: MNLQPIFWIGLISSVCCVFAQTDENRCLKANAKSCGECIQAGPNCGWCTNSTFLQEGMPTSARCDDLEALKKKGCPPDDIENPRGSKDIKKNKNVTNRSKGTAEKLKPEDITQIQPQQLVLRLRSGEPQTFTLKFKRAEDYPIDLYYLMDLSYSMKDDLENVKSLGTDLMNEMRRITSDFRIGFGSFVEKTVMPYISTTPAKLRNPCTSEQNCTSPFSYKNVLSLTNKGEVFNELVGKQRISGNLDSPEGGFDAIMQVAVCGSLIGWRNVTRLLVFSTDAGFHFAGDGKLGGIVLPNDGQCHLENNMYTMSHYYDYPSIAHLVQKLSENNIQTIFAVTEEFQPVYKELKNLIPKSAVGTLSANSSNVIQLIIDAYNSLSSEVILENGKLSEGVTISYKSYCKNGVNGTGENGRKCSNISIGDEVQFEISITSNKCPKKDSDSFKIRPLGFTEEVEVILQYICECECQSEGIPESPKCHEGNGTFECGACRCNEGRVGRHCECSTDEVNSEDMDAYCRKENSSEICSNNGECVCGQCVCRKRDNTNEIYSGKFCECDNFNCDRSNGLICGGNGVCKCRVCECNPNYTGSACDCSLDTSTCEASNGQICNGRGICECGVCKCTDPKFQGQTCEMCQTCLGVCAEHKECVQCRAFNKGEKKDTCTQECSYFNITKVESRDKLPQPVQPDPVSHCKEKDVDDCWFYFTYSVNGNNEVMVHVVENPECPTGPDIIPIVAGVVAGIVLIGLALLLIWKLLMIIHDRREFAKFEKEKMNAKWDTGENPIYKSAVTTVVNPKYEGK
UniProt Q13349, residues 18-1161: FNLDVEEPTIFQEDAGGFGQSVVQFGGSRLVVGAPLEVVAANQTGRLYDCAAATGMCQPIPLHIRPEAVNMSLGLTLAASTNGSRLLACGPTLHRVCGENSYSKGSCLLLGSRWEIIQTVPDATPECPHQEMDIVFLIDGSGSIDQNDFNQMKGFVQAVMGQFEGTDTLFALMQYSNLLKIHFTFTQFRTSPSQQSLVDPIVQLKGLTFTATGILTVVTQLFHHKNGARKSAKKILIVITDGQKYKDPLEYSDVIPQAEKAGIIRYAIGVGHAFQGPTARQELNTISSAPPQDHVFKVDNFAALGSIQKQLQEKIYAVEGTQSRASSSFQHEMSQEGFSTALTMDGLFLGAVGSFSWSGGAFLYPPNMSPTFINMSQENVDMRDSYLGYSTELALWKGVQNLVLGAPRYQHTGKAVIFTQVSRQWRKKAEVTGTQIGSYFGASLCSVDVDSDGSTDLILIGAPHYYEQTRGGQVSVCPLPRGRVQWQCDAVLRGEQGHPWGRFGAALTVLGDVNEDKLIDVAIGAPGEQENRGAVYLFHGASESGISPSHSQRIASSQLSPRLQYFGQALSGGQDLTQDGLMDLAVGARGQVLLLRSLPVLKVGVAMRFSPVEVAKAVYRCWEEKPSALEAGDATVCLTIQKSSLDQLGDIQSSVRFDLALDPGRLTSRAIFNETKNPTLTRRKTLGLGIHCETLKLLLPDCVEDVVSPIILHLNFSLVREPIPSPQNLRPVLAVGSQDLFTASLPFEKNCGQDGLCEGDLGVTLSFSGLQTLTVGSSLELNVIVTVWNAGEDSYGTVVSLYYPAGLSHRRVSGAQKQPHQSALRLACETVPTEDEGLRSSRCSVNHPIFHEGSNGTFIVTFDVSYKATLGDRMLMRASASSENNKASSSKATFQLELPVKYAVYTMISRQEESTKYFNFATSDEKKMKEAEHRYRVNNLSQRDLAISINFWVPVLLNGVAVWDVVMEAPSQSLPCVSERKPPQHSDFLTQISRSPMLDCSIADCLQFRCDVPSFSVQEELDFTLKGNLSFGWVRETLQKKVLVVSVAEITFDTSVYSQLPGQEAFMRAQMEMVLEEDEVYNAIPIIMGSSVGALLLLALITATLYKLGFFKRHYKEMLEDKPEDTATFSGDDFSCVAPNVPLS

Results are given in words; binding and its absence hold for the method and conditions named. In cells and extracts the contact can be indirect. Some entries that bind do so weakly or less than the wild type.

Regarding “integrin αD polypeptide (from UniProt Q13349 18-1161) (receptor)”, the binding result in assay [1] is recorded as “binds”; in assay [2], “no binding (condition: cells grown under normoxia)”; in assay [3] it was “binds”.

The values above are taken from PMC11629678.
